Some entries share one result that the patent states for a list of compounds. At least one compound was matched to its structure with a doubt left.
Tested on: C. parvum
Assay: high content imaging C. parvum growth assay
Type: cell-based, Cryptosporidium parvum
Details: for EC50: in HCT-8 host cells
Source text: FIG. 58 depicts an overview and validation of the high content imaging C. parvum growth assay. A, schematic representation of differential labelling of parasite and host. B, detail of an exemplary micrograph obtained through the screening routine. Numbers indicate object identifies after segmentation analysis. […] For panel D, the ratio of the number of FITC-VVL labelled C. parvum parasites to DAPI labelled HCT-8 host cell nuclei was used to standardize each well and percent C. parvum growth (solid line) was normalized to parasites receiving DMSO alone. […] Paromomycin in addition to reducing parasite number also reduces the average size of the parasite (dashed line). The mean parasite area was measured per well for each treatment in triplicate. The percent area was then calculated by normalizing to the mean area of parasites receiving DMSO alone.
A direct and efficient assay of Cryptosporidium proliferation was also needed. Fluorescent Vicia villosa lectin (VVL) has been used previously to score C. parvum growth by fluorescence microscopy. VVL binds with high specificity to the C. parvum parasite, labelling sporozoites, intracellular stages, the inner oocyst wall, but not the outer oocyst wall. To accommodate the increasing number of compounds entering the SAR pipeline, we adapted the FITC-VVL immunofluorescence assay to a 96-well plate format and developed an automated imaging and analysis pipeline. […] Plates are fixed, permeabilized and stained with FITC-VVL and DAPI to numerate parasites and host cells, respectively. Using a spinning disc microscope, we imaged a […] of each well, providing a robust sample typically consisting of ˜6000 host cells and ˜2000 parasite stages. The instrument is programmed to automatically move from well to well, focus and acquire […] deep image stacks for the entire plate. A series of automated image compression, manipulation, and object-finding algorithms was optimized for the recognition of host cells and parasites using the DAPI and FITC channels. To control for background staining and biological variability, control wells are included for background subtraction. The massive data output is stored, managed and accessed through an Accelrys pipeline database that performs further statistical analyses and transforms raw counts into percentage growth relative to a “no drug” control.
For the HCl assay the day prior to infection 200 000 HCT-8 cells were seeded into black, optical quality, thin bottom, 96-well plates (DB Falcom) to achieve a 70% confluent monolayer on the day of infection. To facilitate oocyst excystation a procedure described by Gut et al., was followed. […]

| Compound | potency relative to paromomycin (anticryptosporidial) [×] | EC50 [nM] |
| --- | --- | --- |
| CC(Oc1cc[n+]([O-])c2ccccc12)c1cn(-c2ccc(Cl)c(Cl)c2)nn1 (stereo not shown) [A103] | > 100 | < 800 |
| C[C@@H](Oc1cc[n+]([O-])c2ccccc12)c1cn(-c2ccc(Cl)cc2)nn1 [A110] | > 100 | < 800 |

— US10125116B2, “Compounds and methods for treating mammalian gastrointestinal microbial infections” (Brandeis University, priority 2009, dated 2018)
